Measurements reported in US20250009830A1 (priority 2021, published 2025).
For at least one compound, name, drawing or mass did not settle the structure.

System: SARS-CoV-2 Wuhan type (SARS-CoV-2PR-1)
Assay: Time of addition (TOA) experiments, Calu-3 cells, qRT-PCR
Details: cells preincubated 2 h, washed, no further treatment, 3 dpi

With `CCC(CC)COC(=O)[C@H](C)N[P@](=O)(OC[C@H]1O[C@@](C#N)(c2ccc3c(N)ncnn23)[C@H](O)[C@@H]1O)Oc1ccccc1` [RDV, Remdesivir] the “SARS-CoV-2 replication, preincubation only” value was “no antiviral activity in this experimental setup”.
